Data source: PubChem BioAssay AID1224830 (NIAID, 2016)
Aim: 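Genes whose knock-down alters the TNF-alpha reporter response to LPS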 (primary screen). System: human THP-1 monocytic leukaemia cells, TNF dual-luciferase reporter clone, PMA-differentiated to macrophage-like cells. Knock-down reagent: siRNA pool against human genes, 50 nM. Duration: LPS for 4 h, given about 3 days after siRNA transfection. Challenge: bacterial LPS (TLR4 ligand), 10 ng/ml. Read-out: 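TNF firefly reporter luminescence divided by renilla, normalised to the plate median, then turned into a robust z-score for each replicate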. Reading the numbers: TNF reporter robust z-score: higher = stronger TNF reporter response to LPS. Rule for the call: 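a well is active when its z-score exceeds 2.8 or falls below -1.5; control wells carry no call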.
This is an unselected part of about 18,000 reagents. Of all reagents, about 2,900 (16%) are marked active. 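Calls are made per well; low scores hint the gene aids the LPS response, high scores that it dampens it.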 Repeated entries: four replicate wells of each siRNA pool. Reagent sequences are not shown.

Which result is listed for PHOX2B (paired like homeobox 2B)?
TNF reporter robust z-score: 2.75; Outcome: inactive

With PHOX2B (paired like homeobox 2B), how do the results read?
TNF reporter robust z-score: 5.19; Outcome: active

What did the screen give for PHOX2B (paired like homeobox 2B)?
TNF reporter robust z-score: 1.52; Outcome: inactive

For PHOX2B (paired like homeobox 2B), what was measured?
TNF reporter robust z-score: 3.42; Outcome: active

How did the screen score PIGX (phosphatidylinositol glycan anchor biosynthesis class X)?
TNF reporter robust z-score: 1.42; Outcome: inactive

With PIGX (phosphatidylinositol glycan anchor biosynthesis class X), how do the results read?
TNF reporter robust z-score: 1.44; Outcome: inactive

What is on record for PIGX (phosphatidylinositol glycan anchor biosynthesis class X)?
TNF reporter robust z-score: 0.68; Outcome: inactive

For PIGX (phosphatidylinositol glycan anchor biosynthesis class X), how do the results read?
TNF reporter robust z-score: 2.04; Outcome: inactive

How did the screen score ATP6V1F (ATPase H+ transporting V1 subunit F)?
TNF reporter robust z-score: -0.98; Outcome: inactive

What is on record for ATP6V1F (ATPase H+ transporting V1 subunit F)?
TNF reporter robust z-score: 0; Outcome: inactive

For ATP6V1F (ATPase H+ transporting V1 subunit F), how do the results read?
TNF reporter robust z-score: -0.34; Outcome: inactive

Which result is listed for ATP6V1F (ATPase H+ transporting V1 subunit F)?
TNF reporter robust z-score: 0.19; Outcome: inactive

What is on record for MAGEA8 (MAGE family member A8)?
TNF reporter robust z-score: -0.65; Outcome: inactive

What did the screen give for MAGEA8 (MAGE family member A8)?
TNF reporter robust z-score: -1.26; Outcome: inactive

With MAGEA8 (MAGE family member A8), how do the results read?
TNF reporter robust z-score: -1; Outcome: inactive

For MAGEA8 (MAGE family member A8), what was measured?
TNF reporter robust z-score: -1.17; Outcome: inactive

With NPNT (nephronectin), what was measured?
TNF reporter robust z-score: 0.94; Outcome: inactive

How did the screen score NPNT (nephronectin)?
TNF reporter robust z-score: 1.02; Outcome: inactive

For NPNT (nephronectin), what was measured?
TNF reporter robust z-score: -0.12; Outcome: inactive

What did the screen give for NPNT (nephronectin)?
TNF reporter robust z-score: 1.06; Outcome: inactive

With VMA22 (vacuolar ATPase assembly factor VMA22), what does the deposit list?
TNF reporter robust z-score: 0.22; Outcome: inactive

How did the screen score VMA22 (vacuolar ATPase assembly factor VMA22)?
TNF reporter robust z-score: 0.31; Outcome: inactive

With VMA22 (vacuolar ATPase assembly factor VMA22), what does the deposit list?
TNF reporter robust z-score: 0.1; Outcome: inactive

Which result is listed for VMA22 (vacuolar ATPase assembly factor VMA22)?
TNF reporter robust z-score: 0.17; Outcome: inactive

What is on record for CCDC116 (coiled-coil domain containing 116)?
TNF reporter robust z-score: 0.86; Outcome: inactive

What is on record for CCDC116 (coiled-coil domain containing 116)?
TNF reporter robust z-score: -0.2; Outcome: inactive

With CCDC116 (coiled-coil domain containing 116), how do the results read?
TNF reporter robust z-score: 0.12; Outcome: inactive

What did the screen give for CCDC116 (coiled-coil domain containing 116)?
TNF reporter robust z-score: 0.22; Outcome: inactive

For WDR45B (WD repeat domain 45B), what does the deposit list?
TNF reporter robust z-score: -1.45; Outcome: inactive

With WDR45B (WD repeat domain 45B), what does the deposit list?
TNF reporter robust z-score: -0.7; Outcome: inactive

For WDR45B (WD repeat domain 45B), how do the results read?
TNF reporter robust z-score: -1.08; Outcome: inactive

For WDR45B (WD repeat domain 45B), how do the results read?
TNF reporter robust z-score: -0.41; Outcome: inactive

Which result is listed for PLEKHF1 (pleckstrin homology and FYVE domain containing 1)?
TNF reporter robust z-score: -0.98; Outcome: inactive

With PLEKHF1 (pleckstrin homology and FYVE domain containing 1), what does the deposit list?
TNF reporter robust z-score: 0; Outcome: inactive

What is on record for PLEKHF1 (pleckstrin homology and FYVE domain containing 1)?
TNF reporter robust z-score: 6.93; Outcome: active

For PLEKHF1 (pleckstrin homology and FYVE domain containing 1), what does the deposit list?
TNF reporter robust z-score: 3.63; Outcome: active

How did the screen score OR8A1 (olfactory receptor family 8 subfamily A member 1)?
TNF reporter robust z-score: -0.48; Outcome: inactive

With OR8A1 (olfactory receptor family 8 subfamily A member 1), how do the results read?
TNF reporter robust z-score: -0.17; Outcome: inactive

What did the screen give for OR8A1 (olfactory receptor family 8 subfamily A member 1)?
TNF reporter robust z-score: -0.01; Outcome: inactive

What did the screen give for OR8A1 (olfactory receptor family 8 subfamily A member 1)?
TNF reporter robust z-score: -0.09; Outcome: inactive

Which result is listed for RLBP1 (retinaldehyde binding protein 1)?
TNF reporter robust z-score: -0.23; Outcome: inactive

With RLBP1 (retinaldehyde binding protein 1), what does the deposit list?
TNF reporter robust z-score: 0.6; Outcome: inactive

With RLBP1 (retinaldehyde binding protein 1), what does the deposit list?
TNF reporter robust z-score: -0.52; Outcome: inactive

With RLBP1 (retinaldehyde binding protein 1), what does the deposit list?
TNF reporter robust z-score: 0.17; Outcome: inactive

With THAP9 (THAP domain containing 9), what was measured?
TNF reporter robust z-score: 0.33; Outcome: inactive

Which result is listed for THAP9 (THAP domain containing 9)?
TNF reporter robust z-score: 0.59; Outcome: inactive

What did the screen give for THAP9 (THAP domain containing 9)?
TNF reporter robust z-score: 0.76; Outcome: inactive

For THAP9 (THAP domain containing 9), what does the deposit list?
TNF reporter robust z-score: 0.45; Outcome: inactive

What is on record for DYNC2LI1 (dynein cytoplasmic 2 light intermediate chain 1)?
TNF reporter robust z-score: -1.42; Outcome: inactive

What is on record for DYNC2LI1 (dynein cytoplasmic 2 light intermediate chain 1)?
TNF reporter robust z-score: -0.74; Outcome: inactive

For DYNC2LI1 (dynein cytoplasmic 2 light intermediate chain 1), what was measured?
TNF reporter robust z-score: -0.7; Outcome: inactive

What did the screen give for DYNC2LI1 (dynein cytoplasmic 2 light intermediate chain 1)?
TNF reporter robust z-score: -1.59; Outcome: active

With UGT2B4 (UDP glucuronosyltransferase family 2 member B4), what does the deposit list?
TNF reporter robust z-score: 3.16; Outcome: active

With UGT2B4 (UDP glucuronosyltransferase family 2 member B4), what does the deposit list?
TNF reporter robust z-score: -0.91; Outcome: inactive

With UGT2B4 (UDP glucuronosyltransferase family 2 member B4), how do the results read?
TNF reporter robust z-score: -1.19; Outcome: inactive

With UGT2B4 (UDP glucuronosyltransferase family 2 member B4), how do the results read?
TNF reporter robust z-score: -1.72; Outcome: active

How did the screen score CUBN (cubilin)?
TNF reporter robust z-score: 1.06; Outcome: inactive

For CUBN (cubilin), how do the results read?
TNF reporter robust z-score: -0.23; Outcome: inactive

What did the screen give for CUBN (cubilin)?
TNF reporter robust z-score: -0.06; Outcome: inactive

For CUBN (cubilin), what was measured?
TNF reporter robust z-score: 1.49; Outcome: inactive
